Reference: patent US7276532B2, “Remedies for vesical hyperactivity” (Kyowa Hakko Kogyo Co., Ltd., priority 2001, dated 2007)
Some of these results come from one statement about several compounds together.

What was measured:
spinal cord-injured rats = assay: Inhibitory activity on detrusor hyperreflexia (cystometry test); assay type: in vivo, rat; conditions: p.o., result in words
Protocol: The experiment was carried out according to the method of Cheng, et al. [Brain Res., Vol. 678, pp. 40-48 (1995)].
(§1) Female SD rats of 8 to 10 weeks of age (supplied by Japan SLC) were used in the test. Five to seven animals of these rats were put in each metal cage and reared by allowing them to freely take commercially available chow and water, in an animal room at room temperature between 19 and 25° C. and humidity between 30 and 70% under illumination for 12 hours (from 7:00 a.m. to 7:00 p.m.) per day.
An operation of spinal cord injury was performed in the rats. Each animal was anesthetized with diethyl ether and the skin of the back side thoracic cord part was incised. A laminectomy at the 7th to 8th thoracic vertebrae level was performed. Then, the thoracic cord at the T7-T8 segments was macroscopically cut and a section of spinal cord (about 5 mm) was removed, and the wound cavity of the removed part was filled with oxidized regenerated cellulose for hemostasis. The incised part was sutured with a surgical silk. After the spinal cord injury operation, urine was expressed manually twice per day (at 8:00-9:00 and 18:00-19:00) for about 3 weeks until autonomic micturition developed. An antibiotic (ampicillin, Sigma. Chemical Co.) was intramuscularly administered to the animals at a dose of 150 mg/kg once to twice per day for about 2 weeks.
(§2) Four to five weeks after the spinal cord injury, the rats were subjected to bladder catheterization. Under diethyl ether anesthesia, the bladder was exposed by midline incision of the abdomen. […] The bladder catheter was fixed with a surgical silk ligature and indwelled. The other end of the catheter was exposed subcutaneously from the back of the neck, plugged and then fixed to the skin with a surgical thread.
Four to six days after the bladder catheterization, a cystometry test was performed. The rats were put in a Bollman cage (Natsume Seisakusho Co., Ltd.) and a three-way cock was connected to the bladder catheter, one end of the cock was connected to a pressure transducer (Nihon Kohden Corp.) and the other end was connected to a 50-mL syringe (Terumo Corp.) arranged to an infusion pump (Harvard Apparatus, Inc.) for physiological saline infusion. The intravesical pressure signal from the pressure transducer was amplified with a strain pressure amplifier (AP-601G, Nihon Kohden Corp.) connected thereto, and was recorded on a thermal array recorder (RTA-1200, Nihon Kohden Corp.) via a polygraph system (RMP-6008, Nihon Kohden Corp.) containing the above amplifier. Sixty to ninety minutes after the completion of the preparation for the measurement, a room temperature physiological saline was infused into the bladder at a flow rate of 10 mL/h for 30 minutes, the occurence of micturition contractions was confirmed. Thirty minutes later, the infusion of physiological saline was carried out again for 30 minutes, and the intravesical pressure was measured to be used as the pre-administration value. Each of Compounds 1 to 6 was suspended in a 0.5 w/v % aqueous solution of methylcellulose at a concentration of 1 mg/mL suspension. The suspension was further diluted with a 0.5 w/v % aqueous solution of methylcellulose to prepare a suspension or solution for the administration at the intended concentration, which was then orally administered to the animals at a volume of 1 mL/kg. The period of 1, 3 and 5 hours after the dosing was used as the measuring time after the administration of the solvent or a compound tested, and the intravesical infusion of a physiological saline was carried out during a duration of 15 minutes around each measuring time (i.e. from 45 to 75 minutes, from 165 to 195 minutes and from 285 to 315 minutes after the administration of the compound).
Micturition contraction was measured as an index of the voiding function and pre-micturition contraction was measured as an index of detrusor hyperreflexia. […]

[1] = system: rats with bladder hypertrophy; assay: Inhibitory activity on detrusor instability (cystometry test after partial urethral obstruction); assay type: in vivo, rat; conditions: p.o., result in words
Protocol: The experiment was carried out according to the method of Malmgren, et al. [J. Urol., Vol. 142, pp. 1134-1138 (1989)].
as §1, with “(7:00 a.m.-7:00” for “(from 7:00 a.m. to 7:00”
The rats were subjected to operation of partial urethral obstruction. Each animal was anesthetized by intraperitoneal administration of 50 mg/kg pentobarbital sodium (Dainippon Pharmaceutical Co., Ltd.), and the midline incision of the skin and muscle was made in the lower abdomen. A polyethylene tube (PE-20, Nippon Becton Dickinson Co., Ltd.) was inserted into urethra from the urethral to the bladder neck. After the proximal urethra was peeled and double-ligated, the polyethylene tube was pulled out to cause partial urethral obstruction. The incised part was-sutured with a surgical silk thread. An antibiotic (ampicillin, Sigma Chemical Co.) was intramusclarly administered to the animals at a dose of 150 mg/kg.
as §2, with “Six” for “Four to five”, “operation of the partial urethral obstruction,” for “spinal cord injury,”, “rats with bladder hypertrophy” for “rats”, “anesthesia with pentobarbital sodium,” for “diethyl ether anesthesia,”
Four to six days after the bladder catheterization, a cystometry test was performed. The rats were put in a Bollman cage (Natsume Seisakusho Co., Ltd.) and a three-way cock was connected to the bladder catheter, one end of the cock was connected to a pressure transducer (Nihon Kohden Corp.) and the other end was connected to a 50-mL syringe (Terumo Corp.) arranged to an infusion pump (Harvard Apparatus, Inc.) for physiological saline infusion. The intravesical pressure signal from the pressure transducer was amplified with a strain pressure amplifier (AP-601G, Nihon Kohden Corp.) connected thereto, and was recorded on a thermal array recorder (RTA-1200, Nihon Kohden Corp.) via a polygraph system (RMP-6008, Nihon Kohden Corp.) containing the above amplifier. Sixty to ninety minutes after the completion of the preparation for the measurement, intravesical infusion of a room temperature physiological saline at a flow rate of 10 mL/h was started and continued until the completion of the test, and the occurrence of micturition contractions and pre-micturition contractions were confirmed. The chart for 30 minutes after 3 hours from the commencement of the saline infusion was used as the values before the drug administration. Each of Compounds 1 to 3 was suspended in a 0.5 w/v % aqueous solution of methylcellulose at a concentration of 1 mg/mL. The suspension was further diluted with a 0.5 w/v % aqueous solution of methylcellulose to prepare a suspension or solution for the administration at the intended concentration. This was then orally administered to the animals at a volume of 1 mL/kg. The period of 1, 3 and 5 hours after the dosing was used as the measuring time after the administration of the solvent or a compound tested, and a duration of 15 minutes around each measuring time (45 to 75 minutes, 165 to 195 minutes and 285 to 315 minutes after the administration of the compound) was used as the measuring period.
Micturition contraction was used as an index of the voiding function and pre-micturition contraction was measure as an index of detrusor instability. […]

## C[C@](O)(C(=O)Nc1cccc2c1C(=O)c1sccc1CS2(=O)=O)C(F)(F)F [Compound 1]
Spinal cord-injured rats
  effect on pre-micturition contractions (detrusor hyperreflexia): inhibited
  influence on micturition contractions: no influence
[1]
  effect on pre-micturition contractions: inhibited
  influence on micturition contractions: no influence

## COc1ccc2c(c1)CS(=O)(=O)c1cccc(NC(=O)C(C)(O)C(F)(F)F)c1C2=O (stereo not drawn) [Compound 2]
Spinal cord-injured rats
  effect on pre-micturition contractions (detrusor hyperreflexia): inhibited
  influence on micturition contractions: no influence
[1]
  effect on pre-micturition contractions: inhibited
  influence on micturition contractions: no influence

## CC(C)(C(=O)[O-])C(=O)Nc1cccc2c1C(=O)c1sccc1CS2(=O)=O.[Na+] [Compound 3]
Spinal cord-injured rats
  effect on pre-micturition contractions (detrusor hyperreflexia): inhibited
  influence on micturition contractions: no influence
[1]
  effect on pre-micturition contractions: inhibited
  influence on micturition contractions: no influence

## C[C@](O)(C(=O)Nc1cccc2c1C(=O)c1sccc1CO2)C(F)(F)F [Compound 4]
Spinal cord-injured rats
  effect on pre-micturition contractions (detrusor hyperreflexia): inhibited
  influence on micturition contractions: no influence

## CC(C)(C)C(=O)Nc1cccc2c1C(=O)c1sccc1CO2 [Compound 5]
Spinal cord-injured rats
  effect on pre-micturition contractions (detrusor hyperreflexia): inhibited
  influence on micturition contractions: no influence

## CC(O)(C(=O)Nc1ccc(Cl)c2c1C(=O)c1sccc1CS2(=O)=O)C(F)(F)F (stereo not drawn) [Compound 6]
Spinal cord-injured rats
  effect on pre-micturition contractions (detrusor hyperreflexia): inhibited
  influence on micturition contractions: no influence
